Publication PMC7518614

Chains of the proteins cited; added tags and fusions are not shown.
UniProt Q9CW03: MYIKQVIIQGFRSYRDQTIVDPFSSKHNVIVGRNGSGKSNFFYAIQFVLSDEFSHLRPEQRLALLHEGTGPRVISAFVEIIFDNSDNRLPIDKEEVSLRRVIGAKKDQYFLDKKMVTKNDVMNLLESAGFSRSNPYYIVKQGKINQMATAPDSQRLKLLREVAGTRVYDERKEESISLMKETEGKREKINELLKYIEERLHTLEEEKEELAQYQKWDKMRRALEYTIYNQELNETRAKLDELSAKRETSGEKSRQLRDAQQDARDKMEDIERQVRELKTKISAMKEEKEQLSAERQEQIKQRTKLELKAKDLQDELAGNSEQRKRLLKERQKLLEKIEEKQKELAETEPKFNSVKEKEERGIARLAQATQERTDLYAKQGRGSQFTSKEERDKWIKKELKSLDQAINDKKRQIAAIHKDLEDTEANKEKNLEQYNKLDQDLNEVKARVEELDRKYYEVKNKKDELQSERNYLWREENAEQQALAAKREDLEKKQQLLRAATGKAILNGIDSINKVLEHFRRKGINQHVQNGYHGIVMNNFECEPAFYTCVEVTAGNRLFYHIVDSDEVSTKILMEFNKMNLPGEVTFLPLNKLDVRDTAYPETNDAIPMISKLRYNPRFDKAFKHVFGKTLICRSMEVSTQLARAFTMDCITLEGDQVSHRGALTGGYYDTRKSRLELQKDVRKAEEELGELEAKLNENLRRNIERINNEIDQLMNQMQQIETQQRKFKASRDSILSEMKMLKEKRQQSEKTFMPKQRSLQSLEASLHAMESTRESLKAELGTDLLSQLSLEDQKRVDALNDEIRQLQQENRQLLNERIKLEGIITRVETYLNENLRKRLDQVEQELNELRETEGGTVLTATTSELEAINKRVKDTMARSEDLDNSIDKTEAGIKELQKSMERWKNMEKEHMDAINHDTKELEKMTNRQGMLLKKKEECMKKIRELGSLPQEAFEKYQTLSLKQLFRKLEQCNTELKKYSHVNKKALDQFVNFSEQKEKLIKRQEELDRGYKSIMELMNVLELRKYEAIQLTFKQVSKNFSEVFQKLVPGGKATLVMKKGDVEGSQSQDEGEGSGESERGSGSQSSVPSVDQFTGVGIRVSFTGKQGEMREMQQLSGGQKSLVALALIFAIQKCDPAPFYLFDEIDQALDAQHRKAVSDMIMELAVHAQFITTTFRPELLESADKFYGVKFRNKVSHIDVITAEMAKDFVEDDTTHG

T1: HORMAD1 (mouse (endogenous in testis)) (UniProt Q9D5T7)
T1 sequence: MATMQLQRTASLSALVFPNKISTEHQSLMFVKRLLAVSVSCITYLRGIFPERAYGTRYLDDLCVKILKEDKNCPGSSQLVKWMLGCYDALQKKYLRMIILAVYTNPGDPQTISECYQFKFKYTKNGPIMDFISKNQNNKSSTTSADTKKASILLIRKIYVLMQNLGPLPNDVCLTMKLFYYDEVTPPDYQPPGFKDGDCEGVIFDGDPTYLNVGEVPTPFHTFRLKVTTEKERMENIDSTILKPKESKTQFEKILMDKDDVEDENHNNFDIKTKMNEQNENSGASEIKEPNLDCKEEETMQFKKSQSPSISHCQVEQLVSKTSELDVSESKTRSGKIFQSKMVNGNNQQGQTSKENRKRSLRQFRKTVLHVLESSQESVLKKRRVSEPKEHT


Target: T1, HORMAD1 (mouse (endogenous in testis))
Assay: affinity purification with mass spectrometry; IP with rabbit anti-HORMAD1 antibody cross-linked to protein A-Dynabeads from chromatin-bound extracts (400 mM KCl) of WT mouse testes enriched for preleptotene/leptotene spermatocytes (WIN 18,446 then RA); washed with high salt extraction buffer; LC-MS/MS; proteins of the control IgG IP subtracted

Row | Molecule | binding
1 | SMC3 (from UniProt Q9CW03 1-1217) | binds
2 | PDS5B (protein, UniProt Q4VA53 1-1446) MAHSKTRTNDGKITYPPGVKEISDKISKEEMVRRLKMVVKTFMDMDQDSEEEKELYLNLALHLASDFFLKHPDKDVRLLVACCLADIFRIYAPEAPYTSPDKLKDIFMFITRQLKGLEDTKSPQFNRYFYLLENIAWVKSYNICFELEDSNEIFTQLYRTLFSVINNGHNQKVHMHMVDLMSSIICEGDTVSQELLDTVLVNLVPAHKNLNKQAYDLAKALLKRTAQAIEPYITNFFNQVLMLGKTSISDLSEHVFDLILELYNIDSHLLLSVLPQLEFKLKSNDNEERLQVVKLLAKMFGAKDSELASQNKPLWQCYLGRFNDIHVPIRLECVKFASHCLMNHPDLAKDLTEYLKVRSHDPEEAIRHDVIVSIVTAAKKDILLVNDHLLNFVRERTLDKRWRVRKEAMMGLAQIYKKYSLQSAAGKDAAKQISWVKDKLLHIYYQNSIDDRLLVERIFAQYMVPHNLETTERMKCLYYLYATLDLNAVKALNEMWKCQNLLRHQVKDLLDLIKQPKTDASVKAIFSKVMVITRNLPDPGKAQDFMKKFTQVLEDDEKIRKQLEALVSPTCSCKQAEGCVREITKKLGNPKQPTNPFLEMIKFLLERIAPVHIDTESISALIKQVNKSIDGTADDEDEGVPTDQAIRAGLELLKVLSFTHPISFHSAETFESLLACLKMDDEKVAEAALQIFKNTGSKIEEDFPHIRSALLPVLHHKSKKGPPRQAKYAIHCIHAIFSSKETQFAQIFEPLHKSLDPSNLEHLITPLVTIGHIALLAPDQFAAPLKSLVATFIVKDLLMNDRLPGKKTTKLWVPDEEVSPETMVKIQAIKMMVRWLLGMKNNHSKSGTSTLRLLTTILHSDGDLTEQGKISKPDMSRLRLAAGSAIVKLAQEPCYHEIITLEQYQLCALAINDECYQVRQVFAQKLHKGLSRLRLPLEYMAICALCAKDPVKERRAHARQCLVKNITVRREYLKQHAAVSEKLLSLLPEYVVPYTIHLLAHDPDYVKVQDIEQLKDVKECLWFVLEILMAKNENNSHAFIRKMVENIKQTKDAQGPDDTKMNEKLYTVCDVAMNIIMSKSTTYSLESPKDPVLPARFFTQPDKNFSNTKNYLPPEMKSFFTPGKPKTANVLGAVNKPLSSAGKQSQTKSSRMETVSNASSSSNPSSPGRIKGRLDSSEMDHSENEDYTMSSPLPGKKSDKREDPDLSELEKPRSRKKAPVTDPEEKLGMDDLTKLVQEQKPKGSQRGRKRGRTASDSDEQQWPEEKRHKEELLENEDEQNSPPKKGKRGRPPKPLGGGTSKEEPTMKTSKKGNKKKLVPPVVDDDEEEERQIGNTEHKSKSKQHRTSKRAQQRAESPETSAVESTQSTPQKGRGRPSKAPSPSQPPKKIRVGRSKQVATKENDSSEEMDVLQASSPVSDDTTQEGAEEEDISVGNVRRRSSKRERR | binds
3 | SMC1β (protein, UniProt Q920F6 1-1248) MGHLELLLVENFKSWRGRQVIGPFKRFTCIIGPNGSGKSNVMDALSFVMGEKTTNLRVKNIQELIHGAHTGKPVSSSASVTIIYIEDSGEEKTFTRIIRGGCSEYHFGDKPVSRSVYVAQLENIGIIVKAQNCLVFQGTVESISMKKPKERTQFFEEISTSGEFIGEYEAKKKKLQKAEEDAQFHFNVKKNVAAERKHAKIEKEEAEHYQNLLEELKINKIQLMLFQLYYNEEKINVLNTELEQMDGNLSVVKDTLSHHENIFKAKKKDYGMLTRQLQQTAKELKSVEAILNQKRPQYIKAKENTSHHLKKLDLSKKLITDNEKQCSKQEDGIRALVAELADLDRAWKSFEKQMEEKILQKGRDIELENSQLDRYKLLKEQVRRKVGIMTQQLEKLQWEQKAEKERLAFEKRRHGDTQGNLKQIKEQIEEHKKRIEKLEEYTKTCMDCLEDKKQQEEALKKEIENTKSRMSEVNEELSLIRNELQNAGIDNHEGKRQQKRAEVLEHLKRLYPDSVFGRLLDLCHPIHKKYQLAVTKLFGRYMVAIVVASEKIAKDCIRFLKAERAEPETFLALDYLDIKPINERLREIKGCKMMIDVIKTQFPQLKKVIQFVCGNGLVCETVEEARHIAFGGPERRKAVALDGTLFLKSGVISGGSSDLKHKALCWDEKELHNLRDKRSQLVQELKELMKTLRKETDLKQIQTLVQGTNTRLKYSQNELEMIKKKHLATFYREQSQLQSELLNIDSQCTMLSEGINKQQQKIEEFQDKIDEVEDDIFQDFCEEIGVENIREFENKHVKQQQENDQKRLEFEKQKTRLNIQLEYSRNQLKKKLNNIDTLKTTIQKGKEDIDNLKKTEEECLKIVEELMVKQEQIKEVLATQSSNIEKIHIQIEEERKKVLAVDREVGKLQKEVVIIQGSLEQKLLEKHNLLLDCKVQDIDISLVLGSLEDIIEMELTETESTQATADIYEKEASIQIDYSPLREDLKALQSDKEVEAHLTLLLQQVASQENTLLKTTAPNLRAQENLKTVRDKFQESADVFEASRKEARICRQEFEQVKRRRYDAFSQCFEHISVSIDQIYKKLCRNNSAQAFLSPENPEEPYLDGISYNCVAPGKRFMPMDNLSGGEKCVAALALLFAVHSFRPAPFFVLDEVDAALDNTNIGKVSSYIKEQSQEQFQMIIISLKEEFYSKADALIGVYPEHNECMFSHVLTLDLSKYPDTEDQEGSRSHRKPRVPRVSMSPKSPQSR | binds

The remaining lines, values ahead:

Row | binding | Molecule
4 | binds | SYCP1 (protein, UniProt Q62209 1-993) MEKQKPFTLFVPPRLSSSQVSAVKPQTAGGDSNYFKTANKCTEGDFGVPFTMSSRENIDKDPAFQKLSILPMLEQVANSGSCHYQEGVNDSDFENSEPMSRLYSKLYKEAEKIKKWKVSIESELKQKENKLQENRKIIEAQRKAIQELQFENEKVSLKLEEEIQENKDLIKENNATIHWCNLLKETCARSAEKTNKYEYEREETRQVYVDLNSNIEKMILAFEELRVQAENARLEMHFKLKEDHEKIQHLEEEYQKEVNNKENQVSELLIQSAEKENKMKDLTFLLEESRDKANQLEEKTKLQDENLKELSEKKDHLTSELEDIKMSMQRSMSTQKALEEDLQIATKTISQLTEVKEAQMEELNKAKTTHSFVVTELKATTCTLEELLRTEQQRLEKNEDQLKLITVELQKKSNELEEMTKFKNNKEVELEELKNILAEDQKLLDEKKQVEKLAEELQEKEQELTFLLETREKEVHDLQEQVTVTKTSEQHYLKQVEEMKTELEKEKLKNTELTASCDMLLLENKKFVQEASDMALELKKHQEDIINCKKQEERLLKQIENLEEKEMHLRDELESVRKEFIQQGDEVKCKLDKSEENARSIECEVLKKEKQMKILESKCNNLKKQVENKSKNIEELHQENKTLKKKSSAEIKQLNAYEIKVSKLELELESTKQRFEEMTNNYQKEIENKKISEGKLLGEVEKAKATVDEAVKLQKEIDLRCQHKIAEMVALMEKHKHQYDKIVEERDSELGLYKNREQEQSSAKIALETELSNIRNELVSLKKQLEIEKEEKEKLKMAKENTAILKDKKDKKIQASLLESPEATSWKFDSKTTPSQNISRLSSSMDSGKSKDNRDNLRASAKSILPTTVTKEYTVKTPTKKSIYQRENKYIPTGGSNKKRKTAFEFDVNSDSSETADLLSLVSEEDVSNRLYDNNPPDSHLLVKTPKQTPLSLSTPASFMKFGSLKKMREDRWTTIAKIDRKRRLKEAEKLFS
5 | binds | STAG3 (protein, UniProt O70576 1-1240) MPTLWSPSTQHHGSSSGSESSPLQKSVRRAQMALSPCSSSILPCDDRDSQGTAEWDSPSTNEDSDFEDSLRRNVKKRAAKQPPKAVPAAKHRKKQSRIVSSGNGKNESVPSTNYLFDAVKAARSCMQSLVDEWLDNYKQDENAGFLELINFFIRACGCKSTVTPEMFKTMSNSEIIQHLTEEFNEDSGDYPLTAPGPSWKKFQGSFCEFVKTLVYQCQYSLLYDGFPMDDLISLLIGLSDSQVRAFRHTSTLAAMKLMTSLVKVALQLSLHKDNNQRQYEAERNKGPEQRAPERLESLLEKRKEFQENQEDIEGMMNAIFRGVFVHRYRDILPEIRAICIEEIGYWMQSYSTSFLNDSYLKYIGWTLHDKHKEVRLKCVKALAGLYSNQELSLRMELFTNRFKDRMVSMVMDRECEVAVEAIRLLTLILKNMEGVLTSADCEKIYSIVYISNRAMASSAGEFVYWKIFHPECGAKAVSDRERRRSPQAQKTFIYLLLAFFMESEHHNHAAYLVDSLWDCAGSYLKDWESLTNLLLQKDQNLGDMQERMLIEILVSSARQAAEGHPPVGRITGKKSLTAKERKLQAYDKMKLAEHLIPLLPQLLAKFSADAENVAPLLQLLSYFDLSIYCTQRLEKHLELLLQQLQEVVVKHVEPEVLEAAAHALYLLCKPEFTFFSRVDFARSQLVDFLTDRFQQELDDLMQSSFLDEDEVYSLTATLKRLSAFYNAHDLTRWEISEPCSRLLRKAVDTGEVPHQVILPALTLVYFSILWTVTHISESTSHKQLMSLKKRMVAFCELCQSCLSDVDPEIQEQAFVLLSDLLLIFSPQMIVGGRDFLRPLVFFPEATLQSELASFLMDHVFLQPGELGNGQSQEDHVQIELLHQRRRLLAGFCKLLLYGVLELDAASDVFKHYNKFYEDYGDIIKETLTRARQIDRCQCSRILLLSLKQLYTELIQEQGPQGLTELPAFIEMRDLARRFALSFGPQQLHNRDLVVMLHKEGIKFSLSELPPAGSSHEPPNLAFLELLSEFSPRLFHQDKRLLLSYLEKCLQRVSKAPNHPWGPVTTYCHSLHPLEITAEASPRGPPHSKKRCVEGPCRPQEEESSSQEESLQLNSGPTTPTLTSTAVKRKQSLRTVGKKQKGRPGPGPGPGPELICSQQLLGTQRLKMSSAPCFQIRCDPSGSGLGKQLTRLSLMEEDEEEELRLLDEEWQRGDKMLHSPSSPSEHGLDLLDTTELNMEDF
6 | binds | SYCP3 (protein, UniProt P70281 1-254) MLRGCGDSDSSPEPLSKHLKMVPGGRKHSGKSGKPPLVDQPKKAFDFEKDDKDLSGSEEDVADEKAPVIDKHGKKRSAGIIEDVGGEVQNMLEKFGADINKALLAKRKRIEMYTKASFKASNQKIEQIWKTQQEEIQKLNNEYSQQFMNVLQQWELDIQKFEEQGEKLSNLFRQQQKIFQQSRIVQSQRMFAMKQIHEQFIKSLEDVEKNNDNLFTGTQSELKKEMAMLQKKVMMETQQQEMANVRKSLQSMLF

No constants are given. Whether binding was seen depends on the method and setting. In cells and extracts the contact can be indirect. A yes stands for co-enrichment or nearness to the bait. Other partners may have been found. Tags and fused reporters may be left off the sequences shown.
